Measured values published in the supplement of paper PMC10060354, “Discovery of a small molecule ligand of FRS2 that inhibits invasion and tumor growth” (Cellular Oncology, 2022).
Single values are uncertain, as repeats are few or missing.

Sequences of proteins named here, by UniProt entry; tags and fusion partners are left off. A change or cut given only in a name is not applied to a line headed by its entry.
UniProt Q9BTC0, whole entry: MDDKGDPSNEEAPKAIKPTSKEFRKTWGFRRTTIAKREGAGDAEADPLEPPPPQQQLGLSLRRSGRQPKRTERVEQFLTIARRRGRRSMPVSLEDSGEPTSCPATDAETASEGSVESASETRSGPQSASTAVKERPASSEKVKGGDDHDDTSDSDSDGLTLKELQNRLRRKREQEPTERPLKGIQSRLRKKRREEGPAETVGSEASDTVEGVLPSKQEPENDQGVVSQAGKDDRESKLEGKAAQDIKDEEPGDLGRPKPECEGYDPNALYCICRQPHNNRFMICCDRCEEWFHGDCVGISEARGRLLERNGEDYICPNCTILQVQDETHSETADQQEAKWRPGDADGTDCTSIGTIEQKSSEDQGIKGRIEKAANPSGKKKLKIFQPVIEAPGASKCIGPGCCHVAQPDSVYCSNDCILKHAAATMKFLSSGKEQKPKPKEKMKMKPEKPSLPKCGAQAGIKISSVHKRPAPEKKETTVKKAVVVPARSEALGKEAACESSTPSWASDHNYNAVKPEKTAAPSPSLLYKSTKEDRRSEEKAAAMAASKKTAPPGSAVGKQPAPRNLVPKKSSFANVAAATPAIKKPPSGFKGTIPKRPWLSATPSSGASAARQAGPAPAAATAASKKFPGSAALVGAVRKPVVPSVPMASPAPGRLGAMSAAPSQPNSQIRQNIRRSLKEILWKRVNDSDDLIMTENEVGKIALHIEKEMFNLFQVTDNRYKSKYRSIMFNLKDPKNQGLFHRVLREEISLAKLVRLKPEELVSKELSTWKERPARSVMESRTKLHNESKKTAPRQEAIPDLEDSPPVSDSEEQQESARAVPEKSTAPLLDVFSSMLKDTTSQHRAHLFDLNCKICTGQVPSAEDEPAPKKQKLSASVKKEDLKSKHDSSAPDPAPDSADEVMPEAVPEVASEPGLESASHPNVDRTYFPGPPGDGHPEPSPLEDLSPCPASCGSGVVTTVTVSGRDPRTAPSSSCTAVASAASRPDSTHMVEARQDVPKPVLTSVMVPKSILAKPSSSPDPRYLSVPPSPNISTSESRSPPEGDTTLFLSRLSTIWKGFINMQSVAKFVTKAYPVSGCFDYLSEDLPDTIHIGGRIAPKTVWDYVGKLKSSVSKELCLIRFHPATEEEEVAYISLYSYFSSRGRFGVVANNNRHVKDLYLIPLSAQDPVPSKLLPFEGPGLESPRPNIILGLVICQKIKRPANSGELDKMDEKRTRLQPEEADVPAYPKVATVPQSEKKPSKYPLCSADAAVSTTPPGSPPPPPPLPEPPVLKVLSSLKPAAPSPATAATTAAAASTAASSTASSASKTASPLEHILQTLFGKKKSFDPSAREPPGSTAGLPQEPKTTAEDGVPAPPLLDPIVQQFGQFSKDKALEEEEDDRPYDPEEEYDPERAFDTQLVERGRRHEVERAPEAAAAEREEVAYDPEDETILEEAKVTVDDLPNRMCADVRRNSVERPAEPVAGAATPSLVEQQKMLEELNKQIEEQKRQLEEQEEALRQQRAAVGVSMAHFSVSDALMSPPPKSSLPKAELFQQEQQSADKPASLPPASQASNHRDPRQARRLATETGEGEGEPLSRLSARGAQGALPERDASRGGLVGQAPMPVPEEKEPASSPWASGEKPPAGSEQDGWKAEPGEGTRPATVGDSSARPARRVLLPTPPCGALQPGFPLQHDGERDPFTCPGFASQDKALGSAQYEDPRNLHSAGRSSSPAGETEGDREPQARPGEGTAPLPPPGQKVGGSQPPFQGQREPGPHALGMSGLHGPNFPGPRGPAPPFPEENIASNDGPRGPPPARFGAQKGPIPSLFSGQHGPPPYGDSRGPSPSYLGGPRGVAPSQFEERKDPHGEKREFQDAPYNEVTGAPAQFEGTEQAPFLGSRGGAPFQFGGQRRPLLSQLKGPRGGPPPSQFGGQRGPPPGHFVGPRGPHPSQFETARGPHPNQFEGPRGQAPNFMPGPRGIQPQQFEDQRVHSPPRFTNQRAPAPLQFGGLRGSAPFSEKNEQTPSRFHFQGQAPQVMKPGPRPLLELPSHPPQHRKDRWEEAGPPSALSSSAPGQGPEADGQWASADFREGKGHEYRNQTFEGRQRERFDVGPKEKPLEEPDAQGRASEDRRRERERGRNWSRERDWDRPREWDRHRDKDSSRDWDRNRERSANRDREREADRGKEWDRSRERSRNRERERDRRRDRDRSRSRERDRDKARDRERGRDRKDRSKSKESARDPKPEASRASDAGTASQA
UniProt O76071: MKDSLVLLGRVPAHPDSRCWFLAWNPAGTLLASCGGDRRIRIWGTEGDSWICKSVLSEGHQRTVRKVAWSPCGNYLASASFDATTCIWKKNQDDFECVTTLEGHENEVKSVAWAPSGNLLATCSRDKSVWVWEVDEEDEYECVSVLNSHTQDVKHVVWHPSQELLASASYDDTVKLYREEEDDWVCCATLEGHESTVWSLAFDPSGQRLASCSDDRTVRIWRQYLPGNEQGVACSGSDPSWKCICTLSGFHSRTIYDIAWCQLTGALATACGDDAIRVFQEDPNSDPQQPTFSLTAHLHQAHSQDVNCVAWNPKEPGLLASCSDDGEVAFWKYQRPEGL
UniProt P47756, whole entry: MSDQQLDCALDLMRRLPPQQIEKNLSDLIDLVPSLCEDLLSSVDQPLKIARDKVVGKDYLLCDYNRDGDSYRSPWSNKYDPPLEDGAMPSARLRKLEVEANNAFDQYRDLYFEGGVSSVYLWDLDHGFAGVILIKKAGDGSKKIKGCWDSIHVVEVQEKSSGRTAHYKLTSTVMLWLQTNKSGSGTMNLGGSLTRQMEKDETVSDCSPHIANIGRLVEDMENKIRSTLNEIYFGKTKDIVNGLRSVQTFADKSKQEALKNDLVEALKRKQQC
UniProt Q6N063: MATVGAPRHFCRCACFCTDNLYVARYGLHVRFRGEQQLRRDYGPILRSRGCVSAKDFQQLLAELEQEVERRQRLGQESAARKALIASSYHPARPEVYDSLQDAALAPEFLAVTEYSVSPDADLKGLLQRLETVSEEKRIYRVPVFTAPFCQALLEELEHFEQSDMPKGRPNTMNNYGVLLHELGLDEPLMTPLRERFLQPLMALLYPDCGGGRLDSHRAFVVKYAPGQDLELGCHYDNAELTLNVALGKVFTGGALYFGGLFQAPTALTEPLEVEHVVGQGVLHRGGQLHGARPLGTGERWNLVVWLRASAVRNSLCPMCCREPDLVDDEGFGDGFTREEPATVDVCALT
UniProt Q9NX40: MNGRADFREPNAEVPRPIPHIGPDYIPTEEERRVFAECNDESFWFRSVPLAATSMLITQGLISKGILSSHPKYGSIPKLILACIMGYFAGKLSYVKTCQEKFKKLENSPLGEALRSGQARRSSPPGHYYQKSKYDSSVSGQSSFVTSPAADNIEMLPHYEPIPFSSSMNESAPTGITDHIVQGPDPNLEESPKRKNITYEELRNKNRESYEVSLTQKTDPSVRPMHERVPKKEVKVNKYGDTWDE
UniProt Q15543, whole entry: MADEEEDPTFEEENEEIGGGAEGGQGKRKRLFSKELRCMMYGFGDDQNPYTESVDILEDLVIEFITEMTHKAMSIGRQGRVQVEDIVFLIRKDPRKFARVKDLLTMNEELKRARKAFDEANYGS
UniProt O75781: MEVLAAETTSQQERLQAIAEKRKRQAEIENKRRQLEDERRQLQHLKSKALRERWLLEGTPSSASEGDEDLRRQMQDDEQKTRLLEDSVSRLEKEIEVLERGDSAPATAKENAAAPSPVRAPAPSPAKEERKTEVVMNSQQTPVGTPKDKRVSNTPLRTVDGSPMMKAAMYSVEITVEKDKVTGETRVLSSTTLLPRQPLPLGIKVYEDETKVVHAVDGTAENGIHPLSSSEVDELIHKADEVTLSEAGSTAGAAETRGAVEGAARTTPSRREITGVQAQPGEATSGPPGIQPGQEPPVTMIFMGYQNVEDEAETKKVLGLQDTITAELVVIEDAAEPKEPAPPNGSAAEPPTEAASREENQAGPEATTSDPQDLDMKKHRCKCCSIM
UniProt Q9UKG9: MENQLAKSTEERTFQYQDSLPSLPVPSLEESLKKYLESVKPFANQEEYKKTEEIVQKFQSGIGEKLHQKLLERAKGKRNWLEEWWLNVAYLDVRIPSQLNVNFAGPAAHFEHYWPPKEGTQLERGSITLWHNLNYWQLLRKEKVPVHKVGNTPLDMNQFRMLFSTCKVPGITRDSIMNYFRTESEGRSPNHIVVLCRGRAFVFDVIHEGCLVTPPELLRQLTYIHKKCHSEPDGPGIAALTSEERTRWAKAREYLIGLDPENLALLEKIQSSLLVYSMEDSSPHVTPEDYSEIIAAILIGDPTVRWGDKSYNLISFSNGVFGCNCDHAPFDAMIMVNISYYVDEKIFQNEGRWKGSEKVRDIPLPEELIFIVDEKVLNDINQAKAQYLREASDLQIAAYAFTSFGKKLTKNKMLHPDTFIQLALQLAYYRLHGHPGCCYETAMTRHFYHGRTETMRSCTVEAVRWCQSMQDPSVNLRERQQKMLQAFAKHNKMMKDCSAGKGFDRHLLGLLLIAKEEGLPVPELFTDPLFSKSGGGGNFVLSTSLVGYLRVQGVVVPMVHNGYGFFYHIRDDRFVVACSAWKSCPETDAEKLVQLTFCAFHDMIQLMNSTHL
UniProt Q13445: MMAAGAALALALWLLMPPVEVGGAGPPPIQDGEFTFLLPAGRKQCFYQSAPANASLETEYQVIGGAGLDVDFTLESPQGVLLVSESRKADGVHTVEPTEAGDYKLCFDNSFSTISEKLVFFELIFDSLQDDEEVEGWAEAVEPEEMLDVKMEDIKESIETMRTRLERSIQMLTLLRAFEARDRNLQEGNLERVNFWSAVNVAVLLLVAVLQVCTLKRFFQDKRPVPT
UniProt Q15814: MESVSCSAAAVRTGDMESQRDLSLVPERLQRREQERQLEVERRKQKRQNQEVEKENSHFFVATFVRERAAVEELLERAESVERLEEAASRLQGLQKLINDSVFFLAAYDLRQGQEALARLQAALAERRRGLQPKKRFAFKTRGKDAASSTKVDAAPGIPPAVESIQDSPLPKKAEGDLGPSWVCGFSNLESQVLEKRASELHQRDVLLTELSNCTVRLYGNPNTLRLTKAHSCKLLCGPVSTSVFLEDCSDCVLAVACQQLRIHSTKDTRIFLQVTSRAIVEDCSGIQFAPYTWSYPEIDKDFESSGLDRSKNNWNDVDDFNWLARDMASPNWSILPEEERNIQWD
UniProt Q9UDR5: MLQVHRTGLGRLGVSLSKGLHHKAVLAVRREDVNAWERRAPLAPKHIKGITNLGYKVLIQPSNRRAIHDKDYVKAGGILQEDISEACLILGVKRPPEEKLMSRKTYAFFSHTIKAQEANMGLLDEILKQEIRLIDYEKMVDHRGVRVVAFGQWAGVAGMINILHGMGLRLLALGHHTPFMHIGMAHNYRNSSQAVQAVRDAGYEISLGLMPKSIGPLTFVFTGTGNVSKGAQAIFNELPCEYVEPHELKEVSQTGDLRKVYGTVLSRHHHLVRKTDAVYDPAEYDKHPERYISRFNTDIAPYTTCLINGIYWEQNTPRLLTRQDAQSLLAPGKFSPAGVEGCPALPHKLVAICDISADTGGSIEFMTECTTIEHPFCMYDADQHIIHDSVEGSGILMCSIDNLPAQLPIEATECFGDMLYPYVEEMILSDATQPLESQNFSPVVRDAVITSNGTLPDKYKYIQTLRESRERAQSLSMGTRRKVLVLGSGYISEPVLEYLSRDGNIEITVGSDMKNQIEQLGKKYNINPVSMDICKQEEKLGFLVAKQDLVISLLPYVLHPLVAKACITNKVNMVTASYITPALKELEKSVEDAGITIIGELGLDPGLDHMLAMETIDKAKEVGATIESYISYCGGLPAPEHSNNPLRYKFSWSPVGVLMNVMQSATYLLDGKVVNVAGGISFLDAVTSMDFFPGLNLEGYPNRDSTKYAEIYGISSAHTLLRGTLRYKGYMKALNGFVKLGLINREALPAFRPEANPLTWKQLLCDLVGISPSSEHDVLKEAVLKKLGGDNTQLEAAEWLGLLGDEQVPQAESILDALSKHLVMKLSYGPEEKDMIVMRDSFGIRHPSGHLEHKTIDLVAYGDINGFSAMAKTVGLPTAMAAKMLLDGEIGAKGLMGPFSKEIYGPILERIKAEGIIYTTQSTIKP
UniProt Q96I15: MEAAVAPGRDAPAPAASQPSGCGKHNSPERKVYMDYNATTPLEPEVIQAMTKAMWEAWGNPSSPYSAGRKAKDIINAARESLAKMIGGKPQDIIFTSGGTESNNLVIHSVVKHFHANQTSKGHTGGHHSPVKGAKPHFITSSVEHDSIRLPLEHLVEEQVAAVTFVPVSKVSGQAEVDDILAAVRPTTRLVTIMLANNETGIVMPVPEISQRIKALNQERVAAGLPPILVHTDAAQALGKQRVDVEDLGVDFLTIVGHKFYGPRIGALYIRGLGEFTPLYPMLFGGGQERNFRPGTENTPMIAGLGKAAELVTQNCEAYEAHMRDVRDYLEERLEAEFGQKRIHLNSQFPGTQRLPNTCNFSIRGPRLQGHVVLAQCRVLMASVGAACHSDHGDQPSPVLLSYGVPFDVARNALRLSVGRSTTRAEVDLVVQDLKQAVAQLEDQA

Compound: [O-][N+](C(C1=C(C(O)=C2)NC(C(C=C3)=CC=C3Cl)C4C1C=CC4)=C2Cl)=O
Test: melting temperature shift (compound 7 minus DMSO); higher = compound stabilises the protein
Conditions: 10 µM
Protocol: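 Thermal proteome profiling (TMT mass spectrometry) in intact DAOY medulloblastoma cells or DAOY lysates treated with 10 µM compound 7 or DMSO, heated at 10 temperatures from 40.5 to 73.8 °C for 3 min. Melting curves were fitted with the Bioconductor TPP package, and the melting point difference between compound and vehicle is reported per protein (single curve per condition).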

[1] = system: intact DAOY cells, treatment time: 90 min, 37 °C
[2] = system: DAOY cell lysate, treatment time: 20 min, 4 °C

ARNT (UniProt P27540)
melting temperature shift [1]: -0.882 °C

UniProt P29728
melting temperature shift [2]: -0.0939 °C

HERC1 (UniProt Q15751)
melting temperature shift [2]: 0.13 °C | melting temperature shift [1]: -0.232 °C

UniProt Q8IXH7
melting temperature shift [2]: -1.56 °C

CAMK2D (UniProt Q13557)
melting temperature shift [2]: -0.209 °C | melting temperature shift [1]: 0.257 °C

AARS (UniProt P49588)
melting temperature shift [2]: -0.768 °C | melting temperature shift [1]: -1.32 °C

DIDO1 (UniProt Q9BTC0)
melting temperature shift [2]: 0.0377 °C | melting temperature shift [1]: -1.19 °C

UniProt Q9H7X7
melting temperature shift [2]: 0.981 °C

PCCA (UniProt P05165)
melting temperature shift [1]: -1.37 °C

UniProt Q96H78
melting temperature shift [1]: 1.66 °C

POGLUT1 (UniProt Q8NBL1)
melting temperature shift [2]: 0.0737 °C | melting temperature shift [1]: 1.4 °C

TELO2 (UniProt Q9Y4R8)
melting temperature shift [2]: -0.963 °C | melting temperature shift [1]: -0.0129 °C

F11R (UniProt Q9Y624)
melting temperature shift [2]: 2.91 °C

DOCK6 (UniProt Q96HP0)
melting temperature shift [2]: 2.17 °C | melting temperature shift [1]: -0.196 °C

UniProt Q8N4X5
melting temperature shift [2]: 0.0303 °C | melting temperature shift [1]: 0.0106 °C

DHRS4 (UniProt Q9BTZ2)
melting temperature shift [2]: 1.18 °C | melting temperature shift [1]: 0.27 °C

TRIM11 (UniProt Q96F44)
melting temperature shift [2]: -0.496 °C

UniProt Q05513
melting temperature shift [1]: -0.837 °C

ASNA1 (UniProt O43681)
melting temperature shift [2]: -0.438 °C | melting temperature shift [1]: -1.71 °C

CCT4 (UniProt P50991)
melting temperature shift [2]: -0.161 °C | melting temperature shift [1]: -0.379 °C

UniProt Q8IXM2
melting temperature shift [2]: 0.94 °C | melting temperature shift [1]: -1.58 °C

CDK5RAP2 (UniProt Q96SN8)
melting temperature shift [2]: -0.895 °C | melting temperature shift [1]: 3.15 °C

UniProt Q6PEY2
melting temperature shift [1]: -0.765 °C

FAH (UniProt P16930)
melting temperature shift [2]: -1.77 °C

UniProt P29762
melting temperature shift [2]: -0.28 °C | melting temperature shift [1]: 0.426 °C

STAT3 (UniProt P40763)
melting temperature shift [2]: -0.424 °C | melting temperature shift [1]: -0.514 °C

FRYL (UniProt O94915)
melting temperature shift [2]: -1.13 °C | melting temperature shift [1]: -0.132 °C

PCYT1A (UniProt P49585)
melting temperature shift [2]: 0.279 °C | melting temperature shift [1]: -0.0157 °C

UniProt Q9H2Y7
melting temperature shift [2]: -0.144 °C

TNS2 (UniProt Q63HR2)
melting temperature shift [1]: 0.13 °C

SUPV3L1 (UniProt Q8IYB8)
melting temperature shift [2]: -0.888 °C | melting temperature shift [1]: -0.691 °C

ZFAND1 (UniProt Q8TCF1)
melting temperature shift [2]: -0.0693 °C | melting temperature shift [1]: 0.266 °C

CLUH (UniProt O75153)
melting temperature shift [2]: -0.601 °C | melting temperature shift [1]: 1.04 °C

UniProt Q9NY61
melting temperature shift [2]: 0.647 °C

UniProt Q03113
melting temperature shift [2]: -1.89 °C

PPP4R1 (UniProt Q8TF05)
melting temperature shift [2]: -1.12 °C | melting temperature shift [1]: 0.0915 °C

N4BP1 (UniProt O75113)
melting temperature shift [2]: -3.42 °C

CIAO1 (UniProt O76071)
melting temperature shift [2]: -1.02 °C | melting temperature shift [1]: -0.718 °C

UniProt Q9NWY4
melting temperature shift [2]: 0.844 °C

GSPT2 (UniProt Q8IYD1)
melting temperature shift [2]: -0.326 °C | melting temperature shift [1]: -1.05 °C

CHMP1B (UniProt Q7LBR1)
melting temperature shift [2]: -0.909 °C

PPM1G (UniProt O15355)
melting temperature shift [2]: -0.88 °C | melting temperature shift [1]: 1.34 °C

UniProt P17213
melting temperature shift [1]: 4.22 °C

NCSTN (UniProt Q92542)
melting temperature shift [2]: 1.28 °C

UniProt Q9Y3D7
melting temperature shift [2]: 0.0489 °C | melting temperature shift [1]: 0.114 °C

STUB1 (UniProt Q9UNE7)
melting temperature shift [2]: -0.52 °C | melting temperature shift [1]: -0.328 °C

CAPZB (UniProt P47756)
melting temperature shift [2]: -0.989 °C | melting temperature shift [1]: -0.0868 °C

UniProt Q6N063
melting temperature shift [2]: 0.299 °C

UniProt Q8IUF1
melting temperature shift [2]: -0.72 °C

UniProt Q9UMX1
melting temperature shift [2]: -1.94 °C

SDAD1 (UniProt Q9NVU7)
melting temperature shift [2]: 0.351 °C

UniProt Q8TEQ0
melting temperature shift [2]: 0.284 °C

ATP6V1B2 (UniProt P21281)
melting temperature shift [2]: 0.129 °C | melting temperature shift [1]: 0.462 °C

UniProt B2RTY4
melting temperature shift [1]: 1.09 °C

OCIAD1 (UniProt Q9NX40)
melting temperature shift [2]: 2.17 °C

UniProt Q8TE12
melting temperature shift [1]: 2.45 °C

DPH1 (UniProt Q9BZG8)
melting temperature shift [2]: -0.718 °C | melting temperature shift [1]: -0.903 °C

MAGT1 (UniProt Q9H0U3)
melting temperature shift [2]: 1.46 °C | melting temperature shift [1]: 0.574 °C

PPP3CA (UniProt Q08209)
melting temperature shift [2]: -0.8 °C | melting temperature shift [1]: 0.68 °C

COL12A1 (UniProt Q99715)
melting temperature shift [2]: -0.769 °C | melting temperature shift [1]: -0.61 °C

HECTD1 (UniProt Q9ULT8)
melting temperature shift [2]: -0.446 °C | melting temperature shift [1]: -0.147 °C

FSCN1 (UniProt Q16658)
melting temperature shift [2]: -0.954 °C | melting temperature shift [1]: 0.335 °C

RAB2A (UniProt P61019)
melting temperature shift [2]: 1.22 °C | melting temperature shift [1]: -0.595 °C

HSPA2 (UniProt P54652)
melting temperature shift [2]: 0.512 °C | melting temperature shift [1]: -0.256 °C

AK1 (UniProt P00568)
melting temperature shift [2]: -0.0765 °C | melting temperature shift [1]: -0.902 °C

UniProt O00213
melting temperature shift [1]: 0.0809 °C

UniProt Q15543
melting temperature shift [2]: -1.04 °C

HDAC3 (UniProt O15379)
melting temperature shift [2]: -0.219 °C | melting temperature shift [1]: -0.233 °C

UniProt Q6KB66
melting temperature shift [2]: -0.0778 °C | melting temperature shift [1]: 8.84 °C

RHBDD2 (UniProt Q6NTF9)
melting temperature shift [2]: -3.02 °C

PALM (UniProt O75781)
melting temperature shift [1]: 0.667 °C

COPS6 (UniProt Q7L5N1)
melting temperature shift [2]: -0.438 °C | melting temperature shift [1]: -0.507 °C

UniProt Q9UH03
melting temperature shift [1]: -0.0976 °C

UniProt Q9H9G7
melting temperature shift [2]: 1.06 °C | melting temperature shift [1]: 0.499 °C

PANK4 (UniProt Q9NVE7)
melting temperature shift [2]: -0.273 °C | melting temperature shift [1]: -1.83 °C

DHX16 (UniProt O60231)
melting temperature shift [2]: -1.07 °C | melting temperature shift [1]: -0.263 °C

MGLL (UniProt Q99685)
melting temperature shift [2]: -0.371 °C | melting temperature shift [1]: 1.79 °C

SGF29 (UniProt Q96ES7)
melting temperature shift [2]: 0.5 °C

UniProt Q9Y5V3
melting temperature shift [2]: -0.356 °C | melting temperature shift [1]: 0.407 °C

TAGLN (UniProt Q01995)
melting temperature shift [2]: -0.952 °C | melting temperature shift [1]: 0.00474 °C

UniProt Q9UKG9
melting temperature shift [2]: 3.2 °C | melting temperature shift [1]: 1.23 °C

PAICS (UniProt P22234)
melting temperature shift [1]: -0.00669 °C

CCNB2 (UniProt O95067)
melting temperature shift [2]: 0.567 °C | melting temperature shift [1]: 0.0336 °C

METTL5 (UniProt Q9NRN9)
melting temperature shift [2]: -2.43 °C | melting temperature shift [1]: -1.77 °C

UniProt Q9UHL9
melting temperature shift [1]: -0.419 °C

PACS1 (UniProt Q6VY07)
melting temperature shift [2]: -0.787 °C | melting temperature shift [1]: 0.687 °C

RPL24 (UniProt P83731)
melting temperature shift [2]: 1.17 °C | melting temperature shift [1]: -0.709 °C

PIP4K2A (UniProt P48426)
melting temperature shift [2]: -0.644 °C | melting temperature shift [1]: -0.856 °C

RNF187 (UniProt Q5TA31)
melting temperature shift [2]: -0.000683 °C

TMED1 (UniProt Q13445)
melting temperature shift [2]: 0.368 °C | melting temperature shift [1]: -0.685 °C

TBCC (UniProt Q15814)
melting temperature shift [2]: -0.192 °C | melting temperature shift [1]: 0.337 °C

UniProt Q6UX15
melting temperature shift [2]: -4.79 °C

SNRNP27 (UniProt Q8WVK2)
melting temperature shift [2]: 1.48 °C

GFPT2 (UniProt O94808)
melting temperature shift [2]: -0.73 °C | melting temperature shift [1]: 1.37 °C

UniProt Q9UDR5
melting temperature shift [2]: 0.711 °C | melting temperature shift [1]: -0.138 °C

DPCD (UniProt Q9BVM2)
melting temperature shift [2]: -1.1 °C

UniProt Q9C0K3
melting temperature shift [1]: 0.0809 °C

AKAP9 (UniProt Q99996)
melting temperature shift [2]: -0.321 °C | melting temperature shift [1]: 0.875 °C

RELA (UniProt Q04206)
melting temperature shift [2]: 0.273 °C | melting temperature shift [1]: 0.545 °C

SARS (UniProt P49591)
melting temperature shift [2]: -0.461 °C | melting temperature shift [1]: -0.656 °C

UniProt Q92610
melting temperature shift [1]: -1.87 °C

ABHD14B (UniProt Q96IU4)
melting temperature shift [2]: -0.618 °C | melting temperature shift [1]: 0.434 °C

CCDC58 (UniProt Q4VC31)
melting temperature shift [2]: -0.835 °C | melting temperature shift [1]: -3.94 °C

UniProt Q8N7X1
melting temperature shift [1]: -0.341 °C

ADSL (UniProt P30566)
melting temperature shift [2]: -1.8 °C | melting temperature shift [1]: -1.17 °C

UniProt Q7Z4I7
melting temperature shift [1]: -0.691 °C

PPIL1 (UniProt Q9Y3C6)
melting temperature shift [2]: -0.414 °C | melting temperature shift [1]: 0.367 °C

MTO1 (UniProt Q9Y2Z2)
melting temperature shift [2]: 3.17 °C

SCLY (UniProt Q96I15)
melting temperature shift [2]: -0.988 °C | melting temperature shift [1]: -0.395 °C

P0DMU7 (UniProt P0DMU8)
melting temperature shift [2]: 1.6 °C

ALDH16A1 (UniProt Q8IZ83)
melting temperature shift [2]: 1.53 °C | melting temperature shift [1]: -0.366 °C

FAM210A (UniProt Q96ND0)
melting temperature shift [2]: 1.27 °C | melting temperature shift [1]: 2.22 °C

EGLN1 (UniProt Q9GZT9)
melting temperature shift [2]: 0.102 °C | melting temperature shift [1]: -0.485 °C

FAM83D (UniProt Q9H4H8)
melting temperature shift [2]: -1.95 °C

GLRX2 (UniProt Q9NS18)
melting temperature shift [2]: -1.77 °C

UniProt P18405
melting temperature shift [2]: -0.59 °C

CHMP7 (UniProt Q8WUX9)
melting temperature shift [2]: -0.862 °C | melting temperature shift [1]: -0.446 °C

UniProt P03915
melting temperature shift [2]: 0.114 °C

HACL1 (UniProt Q9UJ83)
melting temperature shift [2]: 1.86 °C | melting temperature shift [1]: -0.335 °C

UniProt Q13188
melting temperature shift [2]: -0.0389 °C | melting temperature shift [1]: -0.347 °C
